Data source: PubChem BioAssay AID743454 (Peter MacCallum Cancer Centre, 2014)

- Purpose: 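Knock-downs lowering viability or raising caspase 3/7 activity in vorinostat-treated resistant cells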 (primary screen)
- Cells: human HCT116-VR colon cancer cells, selected for vorinostat resistance
- Reagent: siRNA pool against human genes, 40 nM siRNA pool
- Duration: vorinostat for 24 h, read-out about 72 h after transfection
- Challenge: vorinostat at 2.5 µM final
- Measured: 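Cell viability by CellTiter-Fluor and caspase 3/7 activity by luminescence, each scaled to mock wells per plate, duplicates averaged, then robust z-scored over all plates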
- Reading the numbers: viability robust z-score: higher = more viable cells than screen typical; caspase robust z-score: higher = more caspase 3/7 activity than screen typical
- Hit rule: 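Hits are knock-downs in viability class RV1/RV2 or caspase class CA1/CA2, excluding ones that killed cells in the no-drug cell-count arm; hits then retested with single siRNAs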
In all, the deposit lists about 18,000 reagents; shown is a part drawn at random. Of all reagents, 450 (2.5%) were called active. 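Single biological run; no consistent viability z cut-off exists, so the class columns, not z-scores, define the calls.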

{"target": "CST2", "viability hit class": "no change", "caspase hit class": "no change", "viability robust z-score": -1.38, "caspase robust z-score": 2.26, "call": "inactive"}
{"target": "SCNN1A", "viability hit class": "no change", "caspase hit class": "no change", "viability robust z-score": -0.6, "caspase robust z-score": -0.14, "call": "inactive"}
{"target": "PHETA2", "viability hit class": "no change", "caspase hit class": "no change", "viability robust z-score": -0.68, "caspase robust z-score": 1.64, "call": "inactive"}
{"target": "PSMA5", "viability hit class": "no change", "caspase hit class": "no change", "viability robust z-score": -3.72, "caspase robust z-score": 3.12, "call": "inactive"}
{"target": "SPIN4", "viability hit class": "no change", "caspase hit class": "no change", "viability robust z-score": 0.01, "caspase robust z-score": -0.88, "call": "inactive"}
{"target": "GRID1", "viability hit class": "no change", "caspase hit class": "no change", "viability robust z-score": -0.42, "caspase robust z-score": -0.54, "call": "inactive"}
{"target": "ENOSF1", "viability hit class": "no change", "caspase hit class": "no change", "viability robust z-score": 0.57, "caspase robust z-score": -0.12, "call": "inactive"}
{"target": "KRT33A", "viability hit class": "no change", "caspase hit class": "no change", "viability robust z-score": 0.28, "caspase robust z-score": -1.05, "call": "inactive"}
{"target": "NUDC", "viability hit class": "no change", "caspase hit class": "no change", "viability robust z-score": -0.13, "caspase robust z-score": 2.79, "call": "inactive"}

The list goes on, starting with the last 2 of the part before.
{"target": "KRT33A", "viability hit class": "no change", "caspase hit class": "no change", "viability robust z-score": 0.28, "caspase robust z-score": -1.05, "call": "inactive"}
{"target": "NUDC", "viability hit class": "no change", "caspase hit class": "no change", "viability robust z-score": -0.13, "caspase robust z-score": 2.79, "call": "inactive"}
{"target": "TRIM27", "viability hit class": "no change", "caspase hit class": "no change", "viability robust z-score": 0.68, "caspase robust z-score": -0.4, "call": "inactive"}
{"target": "SFXN1", "viability hit class": "no change", "caspase hit class": "no change", "viability robust z-score": 0.42, "caspase robust z-score": -0.64, "call": "inactive"}
{"target": "RAVER1", "viability hit class": "no change", "caspase hit class": "no change", "viability robust z-score": -0.18, "caspase robust z-score": 0.75, "call": "inactive"}
{"target": "HSF1", "viability hit class": "no change", "caspase hit class": "no change", "viability robust z-score": 0.01, "caspase robust z-score": 1.07, "call": "inactive"}
{"target": "ASB5", "viability hit class": "no change", "caspase hit class": "no change", "viability robust z-score": -0.14, "caspase robust z-score": 0.01, "call": "inactive"}
